Assay results: PubChem BioAssay AID1439 (NMMLSC, 2008)
Among all 220,000 compounds or so, about 770 (0.35%) were called active. This list was built around the results that the source calls inconclusive (neither active nor inactive); the mix of calls is not that of the screen. No stated cut-off is given here; in the data, active means binding response below about 49% or above about 150%; inconclusive means no clear call, values can overlap the other calls; inactive means in between.

Chains of the proteins cited; added tags and fusions are not shown.
UniProt P09471, whole entry, looked up: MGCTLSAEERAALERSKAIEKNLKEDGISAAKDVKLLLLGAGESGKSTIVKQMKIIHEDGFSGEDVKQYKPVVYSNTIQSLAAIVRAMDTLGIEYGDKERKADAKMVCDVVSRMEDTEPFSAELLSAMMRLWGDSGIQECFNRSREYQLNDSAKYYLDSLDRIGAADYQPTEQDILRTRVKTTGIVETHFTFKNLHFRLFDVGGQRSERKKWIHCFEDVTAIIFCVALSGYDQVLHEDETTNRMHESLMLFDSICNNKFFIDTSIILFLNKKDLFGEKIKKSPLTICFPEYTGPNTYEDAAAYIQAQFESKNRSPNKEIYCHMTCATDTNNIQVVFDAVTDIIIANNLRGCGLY

Target: Guanine nucleotide-binding protein G(o) subunit alpha (Homo sapiens) (UniProt P09471)
Assay: RGS7-Galphao binding modulators, primary screen, biochemical, multiplexed bead flow cytometry (AID 1439);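 further: fluorescent Galphao held in activated GDP-AlF4 state binding bead-coupled RGS7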
Details: at 10 µM, actives lie on both sides

| Compound | binding response (% of control) |
| --- | --- |
| O=C(COC(=O)c1ccc(F)cc1)Nc1ccc(Cl)cn1 | inconclusive: -132% |
| Cc1ccc(-c2nc3ccccc3c(=O)n2NC(=O)COc2ccccc2)cc1 | inactive: 91.3% |
| COc1ccc(-n2nc(C(=O)NCC(=O)NCCCN3CCCCCC3)c3ccccc3c2=O)cc1Cl | inconclusive: 111% |
| CCOC(=O)c1c(C)n(C)c2ccc(O)c(CN3CCN(C)CC3)c12 | inactive: 121% |
| Cc1cc(=O)oc(C)c1C(=O)Nc1ccc(N(C)C)cc1 | inconclusive: 109% |
| COc1ccc(C(=O)c2cnc[nH]2)cc1 | inconclusive: 98.9% |
| CN1CCN(c2ccc(S(=O)(=O)N3CCCCC3)cc2NC(=O)c2cccc([N+](=O)[O-])c2)CC1 | inconclusive: 107% |
| CCOC(=O)c1cc(-c2cc(OC)c(OC)c(OC)c2)nc2c1c(=O)[nH]c(=O)n2Cc1ccccc1 | inconclusive: 98.3% |
| COC(=O)c1c(-c2c(Cl)cccc2Cl)noc1NC(=O)N(C)C | inconclusive: 87.9% |
| COc1cccc(/C=C(/C(=O)OCC(N)=O)c2ccccc2)c1 | inconclusive: 106% |
| O=C(Cc1ccc(Cl)cc1)Nc1ccc(CN2CCCCC2)cc1 | inconclusive: 89.7% |
| COC(=O)c1cn(C(=O)c2cccs2)c2ccccc12 | inactive: 99.7% |
| CC(=O)Nc1ccc(S(=O)(=O)N2CCOCC2)cc1 | inactive: 79.5% |
| Cc1cc2cc(CNC(=O)Cc3cccs3)ccc2n1C | inconclusive: 92% |
| Cc1nc(SCCO)c([N+](=O)[O-])[nH]1 | inconclusive: 117% |
| COc1cccc(NC(=O)CSc2ncc(S(=O)(=O)c3ccccc3)c(=O)[nH]2)c1 | inconclusive: 85.2% |
| CCCc1cc(=O)c2c(O)cccc2o1 | inconclusive: 112% |
| COC(=O)c1cc(C(=O)OC)n(Cc2ccc(C)cc2)c1C | inconclusive: 118% |
| Cn1nc(-c2ccccc2)cc1NC(=O)Nc1ccc(C(C)(C)C)cc1 | inconclusive: 101% |
| COc1ccc(NS(=O)(=O)c2ccc(OCC(=O)N3CCOCC3)cc2)cc1 | active: 15.7% |
| O=C1NC(Cc2ccccc2)C(=O)N1CC(=O)N1CCCc2ccccc21 (stereo not given) | inconclusive: 122% |
| Cc1noc(C)c1C(=O)OCC(=O)Nc1ccc(C(N)=O)cc1 | inconclusive: 105% |
| COc1ccc(C(C)(C)C)cc1NC(=O)COC(=O)c1ccc([N+](=O)[O-])o1 | inactive: 89.1% |
| COc1ccc(Nc2ncc(C#N)c(N)n2)c(OC)c1 | inconclusive: 107% |
| COc1cc(OC)cc(C(=O)N2CCN(Cc3ccccc3[N+](=O)[O-])CC2)c1 | inactive: 102% |

An excerpt of these results, as tab-separated lines:
Compound	binding response (% of control)
Cc1ccc(-c2nc3ccccc3c(=O)n2NC(=O)COc2ccccc2)cc1	inactive: 91.3%
COc1ccc(-n2nc(C(=O)NCC(=O)NCCCN3CCCCCC3)c3ccccc3c2=O)cc1Cl	inconclusive: 111%
